# Experimental data as given in the supplement of paper PMC12823440, “Inhibitors supercharge kinase turnover through native proteolytic circuits” (Nature, 2025).
# By UniProt entry, the sequences of proteins in these tests, tags left out. Where a name states a change or a piece, a line headed by the entry shows the natural chain unless it says otherwise.
# UniProt P07949, whole entry, looked up: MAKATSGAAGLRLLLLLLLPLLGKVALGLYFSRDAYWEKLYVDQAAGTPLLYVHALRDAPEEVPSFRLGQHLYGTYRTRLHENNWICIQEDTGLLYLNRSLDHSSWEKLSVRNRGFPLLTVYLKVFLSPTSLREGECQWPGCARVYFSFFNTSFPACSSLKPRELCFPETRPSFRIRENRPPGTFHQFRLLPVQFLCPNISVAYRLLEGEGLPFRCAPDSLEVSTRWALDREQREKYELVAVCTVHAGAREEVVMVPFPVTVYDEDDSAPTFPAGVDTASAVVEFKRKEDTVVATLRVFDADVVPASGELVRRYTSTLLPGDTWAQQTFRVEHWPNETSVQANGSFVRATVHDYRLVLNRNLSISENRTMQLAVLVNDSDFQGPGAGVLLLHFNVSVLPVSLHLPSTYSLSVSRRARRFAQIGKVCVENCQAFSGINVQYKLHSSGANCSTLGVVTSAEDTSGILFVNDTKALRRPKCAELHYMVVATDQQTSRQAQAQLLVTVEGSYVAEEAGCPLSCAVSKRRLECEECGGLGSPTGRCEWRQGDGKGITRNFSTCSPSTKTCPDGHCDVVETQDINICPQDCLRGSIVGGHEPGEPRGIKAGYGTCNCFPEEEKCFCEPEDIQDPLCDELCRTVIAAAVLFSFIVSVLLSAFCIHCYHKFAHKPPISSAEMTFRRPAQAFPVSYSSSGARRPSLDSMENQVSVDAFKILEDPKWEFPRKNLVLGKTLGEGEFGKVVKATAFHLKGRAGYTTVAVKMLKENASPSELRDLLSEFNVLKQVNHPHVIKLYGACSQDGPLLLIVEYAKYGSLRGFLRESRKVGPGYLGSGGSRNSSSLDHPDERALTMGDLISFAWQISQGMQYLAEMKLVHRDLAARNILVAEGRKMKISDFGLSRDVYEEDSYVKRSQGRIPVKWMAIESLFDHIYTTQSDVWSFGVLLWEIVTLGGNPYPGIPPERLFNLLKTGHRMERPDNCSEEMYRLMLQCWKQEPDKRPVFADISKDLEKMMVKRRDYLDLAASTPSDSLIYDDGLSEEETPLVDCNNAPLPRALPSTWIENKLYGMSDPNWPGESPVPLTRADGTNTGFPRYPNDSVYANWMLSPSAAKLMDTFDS
# UniProt P07949, whole entry M918T, looked up: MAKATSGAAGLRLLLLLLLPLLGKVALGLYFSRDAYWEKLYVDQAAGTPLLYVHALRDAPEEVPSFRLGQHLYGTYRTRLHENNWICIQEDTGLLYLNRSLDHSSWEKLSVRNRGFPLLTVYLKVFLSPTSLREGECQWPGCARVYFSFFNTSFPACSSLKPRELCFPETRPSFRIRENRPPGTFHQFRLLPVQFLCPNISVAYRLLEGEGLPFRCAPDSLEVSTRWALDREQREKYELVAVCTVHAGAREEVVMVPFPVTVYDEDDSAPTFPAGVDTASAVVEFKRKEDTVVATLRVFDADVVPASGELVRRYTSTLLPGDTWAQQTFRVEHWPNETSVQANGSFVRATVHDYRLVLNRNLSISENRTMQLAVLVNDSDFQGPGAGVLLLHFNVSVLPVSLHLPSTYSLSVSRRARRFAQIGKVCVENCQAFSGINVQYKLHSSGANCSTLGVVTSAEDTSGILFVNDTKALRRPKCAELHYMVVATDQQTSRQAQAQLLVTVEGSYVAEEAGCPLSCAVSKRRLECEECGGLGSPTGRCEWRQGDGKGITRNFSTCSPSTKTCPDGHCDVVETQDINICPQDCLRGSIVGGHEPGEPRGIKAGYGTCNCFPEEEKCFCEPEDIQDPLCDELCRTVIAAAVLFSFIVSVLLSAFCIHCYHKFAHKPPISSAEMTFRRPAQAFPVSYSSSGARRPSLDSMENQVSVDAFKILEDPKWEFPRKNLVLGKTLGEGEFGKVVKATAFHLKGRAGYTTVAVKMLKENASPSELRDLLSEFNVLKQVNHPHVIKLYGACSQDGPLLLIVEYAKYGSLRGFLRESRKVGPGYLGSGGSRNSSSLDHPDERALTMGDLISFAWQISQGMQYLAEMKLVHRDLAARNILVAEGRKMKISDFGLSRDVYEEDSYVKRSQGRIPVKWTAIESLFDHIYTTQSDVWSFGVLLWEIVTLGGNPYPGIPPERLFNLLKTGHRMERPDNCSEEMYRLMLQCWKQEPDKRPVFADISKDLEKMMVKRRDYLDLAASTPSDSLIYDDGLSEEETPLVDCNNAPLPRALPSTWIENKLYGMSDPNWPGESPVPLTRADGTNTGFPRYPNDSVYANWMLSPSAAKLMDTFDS
# UniProt Q9BRS2: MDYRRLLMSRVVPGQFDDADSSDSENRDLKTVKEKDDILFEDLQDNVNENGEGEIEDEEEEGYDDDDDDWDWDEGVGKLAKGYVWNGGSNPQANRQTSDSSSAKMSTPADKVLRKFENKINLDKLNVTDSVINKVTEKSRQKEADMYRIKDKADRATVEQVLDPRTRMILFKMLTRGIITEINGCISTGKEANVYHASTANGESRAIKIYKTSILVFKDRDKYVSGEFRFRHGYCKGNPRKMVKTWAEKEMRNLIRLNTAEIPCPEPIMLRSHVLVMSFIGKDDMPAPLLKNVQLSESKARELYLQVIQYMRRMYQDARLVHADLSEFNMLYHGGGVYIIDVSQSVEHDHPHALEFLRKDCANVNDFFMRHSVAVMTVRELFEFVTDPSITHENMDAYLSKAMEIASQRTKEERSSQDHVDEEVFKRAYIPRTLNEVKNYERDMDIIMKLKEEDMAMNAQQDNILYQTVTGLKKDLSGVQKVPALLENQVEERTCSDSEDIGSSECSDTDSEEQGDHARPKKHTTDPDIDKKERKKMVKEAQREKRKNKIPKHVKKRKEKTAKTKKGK
# UniProt Q13546: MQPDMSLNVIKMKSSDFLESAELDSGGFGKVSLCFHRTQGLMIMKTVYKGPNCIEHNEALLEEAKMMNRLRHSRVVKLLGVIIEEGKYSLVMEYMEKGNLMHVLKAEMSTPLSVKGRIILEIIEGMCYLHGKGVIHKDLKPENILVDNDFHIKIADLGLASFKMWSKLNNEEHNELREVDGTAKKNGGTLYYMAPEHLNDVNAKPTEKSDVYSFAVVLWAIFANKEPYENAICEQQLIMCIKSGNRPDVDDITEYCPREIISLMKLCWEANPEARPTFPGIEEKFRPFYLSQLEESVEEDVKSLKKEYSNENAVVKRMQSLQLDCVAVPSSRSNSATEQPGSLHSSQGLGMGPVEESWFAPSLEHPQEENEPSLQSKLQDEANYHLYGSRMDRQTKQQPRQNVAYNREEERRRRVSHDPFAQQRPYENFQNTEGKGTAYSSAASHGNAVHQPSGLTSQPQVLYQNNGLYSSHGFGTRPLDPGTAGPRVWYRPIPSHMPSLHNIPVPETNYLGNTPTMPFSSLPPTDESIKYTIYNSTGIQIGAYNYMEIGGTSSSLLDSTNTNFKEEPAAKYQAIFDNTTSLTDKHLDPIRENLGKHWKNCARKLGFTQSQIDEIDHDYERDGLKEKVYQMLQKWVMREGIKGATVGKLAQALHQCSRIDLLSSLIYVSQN
# UniProt Q01974, whole entry: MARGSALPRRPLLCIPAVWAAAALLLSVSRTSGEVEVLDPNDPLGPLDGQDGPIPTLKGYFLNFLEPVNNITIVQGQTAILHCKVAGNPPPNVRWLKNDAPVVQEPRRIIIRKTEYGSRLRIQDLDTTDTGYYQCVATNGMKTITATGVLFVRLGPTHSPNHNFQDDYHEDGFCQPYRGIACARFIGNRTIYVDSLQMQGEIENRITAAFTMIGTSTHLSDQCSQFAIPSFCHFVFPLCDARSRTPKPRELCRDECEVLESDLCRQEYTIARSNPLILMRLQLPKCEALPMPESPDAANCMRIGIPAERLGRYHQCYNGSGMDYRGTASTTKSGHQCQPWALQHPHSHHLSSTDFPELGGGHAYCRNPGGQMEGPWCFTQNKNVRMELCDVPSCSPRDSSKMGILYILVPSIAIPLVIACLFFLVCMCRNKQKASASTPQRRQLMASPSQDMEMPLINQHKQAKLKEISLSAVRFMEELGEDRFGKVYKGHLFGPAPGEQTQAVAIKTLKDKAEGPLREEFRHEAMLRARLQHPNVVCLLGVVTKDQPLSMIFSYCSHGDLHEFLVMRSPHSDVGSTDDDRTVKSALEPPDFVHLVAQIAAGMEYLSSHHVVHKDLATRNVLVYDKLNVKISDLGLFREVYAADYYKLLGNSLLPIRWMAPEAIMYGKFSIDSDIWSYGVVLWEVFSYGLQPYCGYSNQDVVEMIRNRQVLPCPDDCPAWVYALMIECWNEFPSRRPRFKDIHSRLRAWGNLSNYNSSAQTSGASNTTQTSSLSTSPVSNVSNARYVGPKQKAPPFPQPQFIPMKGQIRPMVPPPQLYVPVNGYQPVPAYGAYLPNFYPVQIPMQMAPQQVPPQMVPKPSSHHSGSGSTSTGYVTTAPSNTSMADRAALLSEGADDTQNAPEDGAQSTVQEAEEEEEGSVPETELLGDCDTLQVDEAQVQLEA
# UniProt Q15418, whole entry: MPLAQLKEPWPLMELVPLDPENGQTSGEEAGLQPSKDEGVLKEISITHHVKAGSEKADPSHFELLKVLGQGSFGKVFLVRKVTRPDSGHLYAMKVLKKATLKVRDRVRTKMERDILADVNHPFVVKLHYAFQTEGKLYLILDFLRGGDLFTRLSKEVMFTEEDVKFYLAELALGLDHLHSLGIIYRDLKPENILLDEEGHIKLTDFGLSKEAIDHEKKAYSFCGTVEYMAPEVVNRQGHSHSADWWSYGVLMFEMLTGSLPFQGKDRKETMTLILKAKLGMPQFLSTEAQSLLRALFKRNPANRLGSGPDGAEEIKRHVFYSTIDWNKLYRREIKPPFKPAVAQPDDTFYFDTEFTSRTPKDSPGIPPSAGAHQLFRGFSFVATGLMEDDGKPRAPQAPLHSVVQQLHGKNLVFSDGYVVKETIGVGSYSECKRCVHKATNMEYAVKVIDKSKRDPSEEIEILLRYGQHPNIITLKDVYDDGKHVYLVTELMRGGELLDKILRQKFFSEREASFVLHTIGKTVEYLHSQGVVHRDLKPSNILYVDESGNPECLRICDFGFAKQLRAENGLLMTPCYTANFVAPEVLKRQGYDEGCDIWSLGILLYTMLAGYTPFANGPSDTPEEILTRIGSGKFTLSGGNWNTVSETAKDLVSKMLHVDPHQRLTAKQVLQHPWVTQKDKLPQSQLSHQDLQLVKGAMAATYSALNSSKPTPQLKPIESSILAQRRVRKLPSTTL
# UniProt Q9NYA1, whole entry: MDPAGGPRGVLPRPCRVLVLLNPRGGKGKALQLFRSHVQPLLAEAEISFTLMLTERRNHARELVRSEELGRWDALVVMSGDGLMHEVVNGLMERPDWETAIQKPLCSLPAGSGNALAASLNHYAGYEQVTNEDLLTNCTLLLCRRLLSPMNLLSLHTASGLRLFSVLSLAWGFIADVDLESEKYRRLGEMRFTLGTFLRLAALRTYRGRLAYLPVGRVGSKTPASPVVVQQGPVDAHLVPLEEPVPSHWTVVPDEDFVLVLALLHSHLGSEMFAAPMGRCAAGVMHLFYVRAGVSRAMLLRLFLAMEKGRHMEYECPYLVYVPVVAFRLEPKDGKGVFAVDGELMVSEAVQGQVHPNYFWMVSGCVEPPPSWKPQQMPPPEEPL
# UniProt Q9Y6E0: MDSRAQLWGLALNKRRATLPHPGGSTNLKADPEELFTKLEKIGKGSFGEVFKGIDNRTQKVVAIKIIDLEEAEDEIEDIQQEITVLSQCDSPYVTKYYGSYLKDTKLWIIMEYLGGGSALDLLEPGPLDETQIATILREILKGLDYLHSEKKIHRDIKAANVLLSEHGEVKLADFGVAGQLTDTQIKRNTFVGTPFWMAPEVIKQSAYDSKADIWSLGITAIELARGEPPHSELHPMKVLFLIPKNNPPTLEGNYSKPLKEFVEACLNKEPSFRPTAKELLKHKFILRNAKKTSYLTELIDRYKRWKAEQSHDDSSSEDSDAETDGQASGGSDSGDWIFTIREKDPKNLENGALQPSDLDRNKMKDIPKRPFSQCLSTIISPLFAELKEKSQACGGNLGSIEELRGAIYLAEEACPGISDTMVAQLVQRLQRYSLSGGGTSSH
# UniProt Q15208: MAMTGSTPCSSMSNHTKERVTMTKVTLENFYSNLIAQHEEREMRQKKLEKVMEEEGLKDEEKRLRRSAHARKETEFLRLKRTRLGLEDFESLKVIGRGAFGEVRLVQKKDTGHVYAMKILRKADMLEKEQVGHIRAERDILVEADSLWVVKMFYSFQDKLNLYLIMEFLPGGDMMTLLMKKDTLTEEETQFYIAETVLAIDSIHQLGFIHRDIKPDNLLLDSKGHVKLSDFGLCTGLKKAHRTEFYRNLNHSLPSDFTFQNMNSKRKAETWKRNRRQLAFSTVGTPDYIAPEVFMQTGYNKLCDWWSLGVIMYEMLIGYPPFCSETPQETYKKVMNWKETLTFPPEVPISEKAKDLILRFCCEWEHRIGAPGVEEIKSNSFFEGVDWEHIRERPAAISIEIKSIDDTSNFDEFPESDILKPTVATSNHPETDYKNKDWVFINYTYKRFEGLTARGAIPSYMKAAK
# Counter-ions that a name gives are not always drawn. This is one part of the list. The calls rarely recur for the same compound in another form.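 Kinases were expressed as nanoluciferase fusions in K562 cells and luminescence was read every 4 h between 2 and 18 h as percent of control, DMSO set to 100% and a positive control to 0%. A time point counts as decreased when the signal drops significantly (2 sigma). The hit call is the authors' own, does not follow from the count of time points alone, and its rule is not shown.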
# How the values were obtained:
# Experiment in all cases: number of time points (of 5) at which kinase-Nluc abundance scored as decreased, DMSO-normalised (count); higher = more persistent destabilization
# Details in all cases: K562; 2-18 h
# PRKCA = PRKCA (UniProt P17252)
# PTK2 = PTK2 (UniProt Q05397)
# PTK2B = PTK2B (UniProt Q14289)
# RAF1 = RAF1 (UniProt P04049)
# [1] = target: RAF1_S257L (clone: RAF1_mut) (UniProt P04049)
# RET = RET (UniProt P07949)
# [2] = target: RET_M918T (clone: RET_mut) (UniProt P07949)
# RIOK1 = RIOK1 (UniProt Q9BRS2)
# RIPK1 = RIPK1 (UniProt Q13546)
# RIPK2 = RIPK2 (UniProt O43353)
# ROR2 = ROR2 (UniProt Q01974)
# RPS6KA1 = RPS6KA1 (UniProt Q15418)
# SPHK1 = SPHK1 (UniProt Q9NYA1)
# SRC = SRC (UniProt P12931)
# STK24 = STK24 (UniProt Q9Y6E0)
# STK38 = STK38 (UniProt Q15208)
# SYK = SYK (UniProt P43405)
# TEC = TEC (UniProt P42680)
# TYK2 = TYK2 (UniProt P29597)
# ULK3 = ULK3 (UniProt Q6PHR2)
Compound,number of time points (PRKCA),number of time points (PTK2),number of time points (PTK2B),number of time points (RAF1),number of time points [1],number of time points (RET),number of time points [2],number of time points (RIOK1),number of time points (RIPK1),number of time points (RIPK2),number of time points (ROR2),number of time points (RPS6KA1),number of time points (SPHK1),number of time points (SRC),number of time points (STK24),number of time points (STK38),number of time points (SYK),number of time points (TEC),number of time points (TYK2),number of time points (ULK3)
Cc1noc(C)c1-c1ccc(-c2cc(C(N)=O)c(NC(N)=O)s2)c(O[C@H]2CCNC2)c1 (10 µM),0,0,0,0,0,0,0,0,0,0,0,0,0,0,0,0,0,0,0,0
COc1ccc2c(c1O)OC(C)(C)c1c-2ccc2c1C(=O)N(c1ccc(C(=O)c3ccccc3)cc1)C2=O [Ampkinone] (10 µM),0,0,0,0,0,0,0,0,0,0,0,0,0,0,0,0,0,0,0,0
Cc1cc2cc(Nc3ccnc(Nc4ccc5[nH]c(C)cc5c4)n3)ccc2[nH]1 (2.5 µM),0,0,0,0,0,0,0,0,0,0,0,0,0,0,0,0,0,0,0,0
CN(CCNc1ccc2ncc(-c3ccc(C(N)=O)cc3)n2n1)C(=O)OC(C)(C)C (10 µM),0,0,0,0,0,0,0,0,0,0,0,0,0,0,0,0,0,0,1,0
CC(C)(C)NC(=O)c1cncn1C1CCN(c2ccc(-c3nnc(C(F)(F)F)o3)cn2)CC1 (10 µM),0,0,0,0,0,0,0,0,0,0,0,0,0,0,0,0,0,0,0,0
Cc1cc(NC(=O)c2cccc(NC(=O)/C=C/CN(C)C)c2)ccc1Nc1nccc(-c2cccnc2)n1 (10 µM),0,0,0,0,0,0,0,0,0,3,0,0,0,0,0,0,0,0,3,0
O=c1cc(O)cc(/C=C/c2ccc(O)c(O)c2)o1 [Hispidin] (10 µM),0,0,0,0,0,0,0,0,0,0,0,0,0,0,0,0,0,0,0,0
CC(C)(NS(=O)(=O)c1ccc2c(Cl)cnc(N=C(N)N)c2c1)C(=O)O (10 µM),0,0,0,0,0,0,0,0,0,0,0,0,0,0,0,0,0,0,0,0
CN1C(=O)C(Cc2c[nH]c3ccccc23)NC1=S (stereo not given) [Necrostatin-1] (10 µM),0,0,0,0,0,0,0,0,0,0,0,0,0,0,0,0,0,0,0,0
O=C(NCCCNC(=O)Nc1cccc(C2=NCCN2)c1)Nc1cccc(C2=NCCN2)c1 [p32 Inhibitor M36] (10 µM),0,0,0,0,0,0,0,0,0,0,0,0,0,0,0,0,0,0,0,0
CCn1c(-c2nonc2N)nc2cnc(Oc3cccc(NC(=O)c4ccc(OCCN5CCOCC5)cc4)c3)cc21 (10 µM),0,5,0,0,0,0,0,0,0,0,0,0,0,0,0,0,0,0,0,0
COc1cc(N2CCC(N3CCN(C)CC3)CC2)ccc1Nc1ncc(Cl)c(Nc2ccccc2P(C)(C)=O)n1 [Brigatinib] (2 µM),0,1,0,0,3,0,0,0,0,0,0,0,0,0,0,0,0,0,0,0
CC1CCc2nc(N)c(C#N)c(-c3cccnc3)c2C1 (stereo not given) (10 µM),0,0,0,0,0,0,0,0,0,0,0,0,0,0,0,0,0,0,0,0
CNC(=O)Nc1ccc(-c2cc(-c3ccnc(Nc4ccc(C)c(S(=O)(=O)N(C)C)c4)n3)ccn2)cc1 [hSMG-1 inhibitor 11e] (2.5 µM),0,1,0,1,3,0,0,2,1,1,0,0,0,0,0,0,0,2,3,1
Cc1ccc(NC(=S)NNc2c([N+](=O)[O-])cc(C(F)(F)F)cc2[N+](=O)[O-])cc1Cl (10 µM),0,1,0,0,0,0,0,0,0,0,0,0,0,0,0,0,0,0,0,0
C[C@]1(O)CCC[C@@H]1n1c(=O)c(C(F)F)cc2cnc(NC3CCN(S(C)(=O)=O)CC3)nc21 (10 µM),0,0,0,0,0,0,0,0,0,0,0,0,0,0,0,0,0,0,0,0
O=C1c2ccc(Nc3ccc(F)cc3F)cc2CCc2ccc(OC[C@H](O)CO)cc21 [Skepinone-L] (2.5 µM),0,0,0,0,0,0,0,0,0,0,0,0,0,0,0,0,0,0,0,0
O=[N+]([O-])c1cc(C(F)(F)F)cc([N+](=O)[O-])c1NNC(=S)Nc1ccc(F)cc1 (10 µM),0,0,0,0,0,0,0,0,0,0,0,0,0,0,0,0,0,0,0,0
CC(=O)N1CCN(c2cc(-c3cc(C(F)(F)F)c4c(N)ncnn34)ccc2C#N)C(=O)C1(C)C (10 µM),0,0,0,0,0,0,0,0,0,0,0,0,0,0,0,0,0,0,0,0
O=C(Nc1cccnc1)c1cc(C(=O)c2c(F)cccc2Br)c[nH]1 (10 µM),0,0,0,0,0,0,0,0,0,0,0,0,0,0,0,0,0,0,0,0
N[C@H](Cc1c[nH]c2ccccc12)C(=O)N/N=C/c1ccc2nccnc2c1 [Rhosin (hydrochloride)] (10 µM),0,0,0,0,0,0,0,0,0,0,0,0,0,0,0,0,0,0,0,0
N#Cc1c(-c2ccccc2)cc(-c2cc(Br)ccc2O)[nH]c1=O (10 µM),0,0,0,0,0,0,0,0,0,0,0,0,0,0,0,0,0,0,0,0
O=C(/C=C/c1ccc(O)c(O)c1)c1ccc(O[C@@H]2O[C@H](CO)[C@@H](O)[C@H](O)[C@H]2O)c(O)c1O [Marein] (10 µM),0,0,0,0,0,0,0,0,0,0,0,0,0,0,0,0,0,0,0,0
Cc1c(NC(=O)OC[C@@H]2COCCN2)cn2ncnc(Nc3ccc4c(cnn4Cc4cccc(F)c4)c3)c12 (10 µM),0,0,0,0,0,0,0,0,0,0,0,0,0,0,0,0,0,0,0,0

# Looked up above:
# In number of time points (RIPK2), CC1CCc2nc(N)c(C#N)c(-c3cccnc3)c2C1 (stereo not given) (10 µM) is entered as 0
# In number of time points (PRKCA), N#Cc1c(-c2ccccc2)cc(-c2cc(Br)ccc2O)[nH]c1=O (10 µM) is entered as 0
